{"source": "paper doi:10.1101/2024.12.02.626492", "binders": {"B1": {"name": "human SPEF1 CH domain (residues 1-125) fused to GFP (HsSPEF1-CH) (domain or fragment, UniProt Q9Y4P9-1 1-125)", "chain": "MASSVDEEALHQLYLWVDNIPLSRPKRNLSRDFSDGVLVAEVIKFYFPKMVEMHNYVPANSLQQKLSNWGHLNRKVLKRLNFSVPDDVMRKIAQCAPGVVELVLIPLRQRLEERQRRRKQGAGSL"}}, "key": {"[1]": {"molecular_target": "Bos taurus tubulin, polymerised into microtubules (Bos taurus)", "test": "cryo-electron tomography with subtomogram averaging; 5 uM Taxol-stabilized bovine microtubules incubated at an equimolar ratio with HsSPEF1-CH for 30 minutes in BRB80; 13-PF and 14-PF averages at 19 and 17 Å; both purified"}, "[2]": {"molecular_target": "Bos taurus tubulin, polymerised into microtubules (Bos taurus)", "test": "TIRF microscopy (microtubule dynamics assay); GMPCPP-stabilized seeds immobilised on cover glass via antibodies; 8 uM tubulin (10% AF546) with 100/400/750/1000/2000 nM HsSPEF1-CH; BRB80, 1 mM GTP, 29 mM KCl, 35°C; both purified"}}, "note": "No constants are given. Whether binding was seen depends on the method and setting. A result given as binding can be weak or reduced; the word gives no strength. Sequences can lack the tags named with a protein.", "data": [{"binder": "B1", "values": [{"measurement": "binding", "setting": "[1]", "value": "binds"}, {"measurement": "binding", "setting": "[2]", "value": "binds"}]}]}
